Data reported in PMC10589240.
Results are given in words; binding and its absence hold for the method and conditions named. In cells and extracts the contact can be indirect. These calls come from enrichment with a bait or labelling near it, and not all partners need be listed.

Chains of the proteins cited; added tags and fusions are not shown. Lines headed by an entry give the natural chain unless they say otherwise; changes in a name come on top. A line that says so, or that is headed by a name, gives the form on record, which may keep a tag or linker.
thyroid hormone receptor interactor protein 12 (TRIP12), endogenous (human (endogenous in HCT116 and HEK293T)) (Q14669, form named): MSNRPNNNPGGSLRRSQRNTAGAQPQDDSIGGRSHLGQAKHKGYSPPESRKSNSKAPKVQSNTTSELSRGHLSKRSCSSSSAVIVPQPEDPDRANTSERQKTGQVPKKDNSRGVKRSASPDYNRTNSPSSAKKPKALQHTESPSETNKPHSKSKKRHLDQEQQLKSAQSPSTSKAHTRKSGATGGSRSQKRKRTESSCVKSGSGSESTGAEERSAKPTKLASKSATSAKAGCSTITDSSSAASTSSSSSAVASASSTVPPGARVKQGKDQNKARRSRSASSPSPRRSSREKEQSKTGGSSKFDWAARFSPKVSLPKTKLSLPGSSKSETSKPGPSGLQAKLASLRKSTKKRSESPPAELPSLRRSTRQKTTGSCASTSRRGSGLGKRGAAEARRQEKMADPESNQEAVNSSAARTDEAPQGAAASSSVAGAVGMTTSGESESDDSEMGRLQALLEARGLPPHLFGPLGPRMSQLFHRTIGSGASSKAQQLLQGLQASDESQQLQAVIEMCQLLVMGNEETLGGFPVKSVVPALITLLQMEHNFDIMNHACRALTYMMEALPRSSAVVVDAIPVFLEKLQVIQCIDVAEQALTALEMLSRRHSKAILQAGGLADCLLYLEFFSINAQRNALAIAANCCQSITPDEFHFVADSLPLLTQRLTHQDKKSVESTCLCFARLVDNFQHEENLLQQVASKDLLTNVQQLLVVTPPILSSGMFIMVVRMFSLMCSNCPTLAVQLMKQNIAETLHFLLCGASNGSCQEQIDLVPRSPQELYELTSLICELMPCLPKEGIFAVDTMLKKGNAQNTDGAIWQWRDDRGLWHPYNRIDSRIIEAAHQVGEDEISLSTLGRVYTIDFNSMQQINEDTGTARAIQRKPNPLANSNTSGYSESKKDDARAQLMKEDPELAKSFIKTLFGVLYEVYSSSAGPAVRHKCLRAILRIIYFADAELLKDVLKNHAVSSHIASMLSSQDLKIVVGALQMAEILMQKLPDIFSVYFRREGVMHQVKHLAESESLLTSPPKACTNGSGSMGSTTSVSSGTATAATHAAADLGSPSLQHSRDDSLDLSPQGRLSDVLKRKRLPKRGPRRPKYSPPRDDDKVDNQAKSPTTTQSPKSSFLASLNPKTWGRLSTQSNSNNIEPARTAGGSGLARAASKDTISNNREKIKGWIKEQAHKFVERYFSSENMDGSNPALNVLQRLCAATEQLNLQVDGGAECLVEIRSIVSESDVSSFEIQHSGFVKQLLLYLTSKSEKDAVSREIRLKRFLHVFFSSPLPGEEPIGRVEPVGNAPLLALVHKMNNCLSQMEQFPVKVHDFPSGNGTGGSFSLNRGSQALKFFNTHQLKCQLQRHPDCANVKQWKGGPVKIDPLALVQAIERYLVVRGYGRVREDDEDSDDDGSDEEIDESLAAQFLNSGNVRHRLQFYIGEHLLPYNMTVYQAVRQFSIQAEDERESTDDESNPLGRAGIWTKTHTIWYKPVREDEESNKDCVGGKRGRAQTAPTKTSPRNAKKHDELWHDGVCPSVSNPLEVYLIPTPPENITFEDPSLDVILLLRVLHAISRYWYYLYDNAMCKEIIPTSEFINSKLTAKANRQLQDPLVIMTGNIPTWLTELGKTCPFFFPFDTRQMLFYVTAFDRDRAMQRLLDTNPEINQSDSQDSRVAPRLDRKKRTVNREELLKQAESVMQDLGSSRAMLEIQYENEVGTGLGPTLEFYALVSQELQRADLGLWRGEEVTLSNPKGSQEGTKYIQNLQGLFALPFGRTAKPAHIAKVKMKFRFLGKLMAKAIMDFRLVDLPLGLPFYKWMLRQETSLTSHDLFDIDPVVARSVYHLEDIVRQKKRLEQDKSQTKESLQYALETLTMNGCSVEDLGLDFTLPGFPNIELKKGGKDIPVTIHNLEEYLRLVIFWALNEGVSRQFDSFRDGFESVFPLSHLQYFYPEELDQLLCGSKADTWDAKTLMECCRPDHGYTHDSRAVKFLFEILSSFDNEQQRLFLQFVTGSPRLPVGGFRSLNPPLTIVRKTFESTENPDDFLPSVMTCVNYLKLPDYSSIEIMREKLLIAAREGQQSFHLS
UniProt Q13485: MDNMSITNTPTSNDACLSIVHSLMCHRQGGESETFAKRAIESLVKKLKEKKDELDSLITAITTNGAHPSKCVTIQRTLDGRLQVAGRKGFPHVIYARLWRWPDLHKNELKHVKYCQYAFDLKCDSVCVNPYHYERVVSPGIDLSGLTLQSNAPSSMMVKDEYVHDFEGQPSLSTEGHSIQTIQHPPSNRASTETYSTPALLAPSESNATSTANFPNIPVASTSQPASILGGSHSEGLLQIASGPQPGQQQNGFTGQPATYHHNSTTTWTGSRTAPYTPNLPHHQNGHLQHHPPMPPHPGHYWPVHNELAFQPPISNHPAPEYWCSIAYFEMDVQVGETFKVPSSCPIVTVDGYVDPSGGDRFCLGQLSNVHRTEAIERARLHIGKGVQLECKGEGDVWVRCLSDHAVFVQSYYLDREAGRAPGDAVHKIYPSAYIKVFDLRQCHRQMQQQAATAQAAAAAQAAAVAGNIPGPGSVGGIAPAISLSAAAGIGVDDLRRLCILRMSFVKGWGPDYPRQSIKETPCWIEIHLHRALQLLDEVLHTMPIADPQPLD

Target: thyroid hormone receptor interactor protein 12 (TRIP12), endogenous (human (endogenous in HCT116 and HEK293T)) (UniProt Q14669)
Experiment: affinity purification with mass spectrometry; IP with an antibody to endogenous TRIP12 (control IgG) from lysates of HCT116 cells treated with MG132 for 6 h; protein A/G Sepharose; gel bands analysed by MS

binding: binds
Substance: SMAD4, endogenous (from UniProt Q13485 1-552)
